Reference: patent US6610675B1 (priority 1980, dated 2003)

assay: Therapeutic index from ED50 (cotton pellet granuloma) and TED40 (thymus inhibition); format: in vivo, rat; settings: ratio of the relative potency for the ED50 to the relative potency for the TED40; hydrocortisone 17-butyrate = 1

Row | Compound | Therapeutic Index
1 | CCOC(=O)O[C@]1(C(=O)OCCl)[C@H](C)C[C@H]2[C@@H]3CCC4=CC(=O)C=C[C@]4(C)[C@@]3(F)[C@@H](O)C[C@@]21C [chloromethyl 17α-ethoxycarbonyloxy-9α-fluoro-11β-hydroxy-16α-methylandrosta-1,4-dien-3-one-17β-carboxylate] | 18000
2 | CC(C)OC(=O)O[C@]1(C(=O)OCCl)CC[C@H]2[C@@H]3CCC4=CC(=O)CC[C@]4(C)[C@H]3[C@@H](O)C[C@@]21C [chloromethyl 11β-hydroxy-17α-isopropoxycarbonyloxyandrost-4-en-3-one-17β-carboxylate] | 24
3 | CCCCC(=O)O[C@]1(C(=O)CO)[C@@H](C)C[C@H]2[C@@H]3CCC4=CC(=O)C=C[C@]4(C)[C@@]3(F)[C@@H](O)C[C@@]21C [Betamethasone 17-valerate, reference compound] | 1
4 | COC(=O)O[C@]1(C(=O)OCCl)[C@H](C)C[C@H]2[C@@H]3CCC4=CC(=O)C=C[C@]4(C)[C@@]3(F)[C@@H](O)C[C@@]21C [chloromethyl 9α-fluoro-11β-hydroxy-17α-methoxycarbonyloxy-16α-methylandrosta-1,4-dien-3-one-17β-carboxylate] | 7270
5 | CC(C)OC(=O)O[C@]1(C(=O)OCCl)CC[C@H]2[C@@H]3CCC4=CC(=O)C=C[C@]4(C)[C@H]3[C@@H](O)C[C@@]21C [chloromethyl 11β-hydroxy-17α-isopropoxycarbonyloxy-androsta-1,4-dien-3-one-17β-carboxylate] | 48
